## Library compounds against nucleic acid targets

Calls as published in the ROBIN set (doi:10.1002/anie.202211358).

Oligonucleotides screened, 5′ to 3′:
T1: TPP riboswitch RNA three-way junction, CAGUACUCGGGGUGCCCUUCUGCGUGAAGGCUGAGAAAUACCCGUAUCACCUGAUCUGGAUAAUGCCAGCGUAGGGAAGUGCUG. About 24,000 compounds screened, about 160 hits.
T2: PreQ1 riboswitch RNA pseudoknot, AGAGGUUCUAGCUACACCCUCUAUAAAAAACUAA. From B. subtilis. About 24,000 compounds screened, about 170 hits.
T3: SAM-II riboswitch RNA pseudoknot, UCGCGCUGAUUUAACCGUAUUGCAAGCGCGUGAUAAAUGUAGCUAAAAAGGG. About 21,000 compounds screened, about 200 hits.

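Each compound is printed as two spots on a slide made to bind it covalently, so it has no test concentration; the read-out is fluorescence of the bound, labelled oligonucleotide. For the PreQ1, TPP and SAM-II riboswitches the laboratory earlier reported (doi:10.1038/s41467-019-09493-3) 1 µM RNA, 2 h, and a rule that included a mean Z-score above 3 (spot signal-to-noise against the whole library), a score well above that on a control array, and duplicate spots agreeing (coefficient of variation under 100). The data file gives only the calls; its cut-offs may differ, and compounds hitting several targets are kept. These are primary screening calls, not affinities; a compound without a hit may have attached poorly or may still bind in solution.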
“active” means called a hit, “inactive” means screened and not called a hit.
Compounds were drawn at random from those tested, without regard to their results.
A target missing from an entry has no call listed here.

{"compound": "Cc1ccc(OCC(O)CN2C(C)CCCC2C)c(C)c1", "stereo": "stereo not drawn", "T1": "inactive", "T2": "inactive", "T3": "inactive"}
{"compound": "Cc1cc(Nc2ccc(Br)cc2)n2cnnc2n1", "T1": "inactive", "T2": "inactive"}
{"compound": "O=C1C=C(NCCc2cnc[nH]2)CC(c2ccccc2Cl)C1", "stereo": "stereo not drawn", "T1": "inactive", "T2": "inactive", "T3": "inactive"}
{"compound": "COc1ccccc1OCC(O)Cn1nc(C)cc1C", "stereo": "stereo not drawn", "T1": "inactive", "T2": "inactive", "T3": "inactive"}
{"compound": "O=C(Nc1cccc(C(F)(F)F)c1)Nc1cc(S(=O)(=O)NC2CC2)ccc1-c1ccsc1", "T1": "inactive", "T2": "inactive", "T3": "inactive"}
{"compound": "O=c1[nH]c2ccccc2cc1CO", "T1": "inactive", "T2": "inactive"}
{"compound": "Cl.OCCOc1ccc(CNCC2CCCO2)cc1", "stereo": "stereo not drawn", "T1": "inactive", "T2": "inactive", "T3": "inactive"}
{"compound": "Cc1cnc(N2CCC(C(=O)O)(n3cccn3)CC2)nc1N", "T1": "inactive", "T2": "inactive", "T3": "inactive"}
{"compound": "COc1cccc(Nc2nc(C)c3ncn(-c4cccc(OC)c4)c3n2)c1", "T1": "inactive", "T2": "inactive", "T3": "inactive"}
{"compound": "CCCn1cnnc1C(C)NC(=O)c1cccc(NCc2cccs2)c1", "stereo": "stereo not drawn", "T1": "inactive", "T2": "inactive", "T3": "inactive"}
{"compound": "Cc1ccc(Nc2nc(-c3ccncc3)nc3ccccc23)cc1", "T1": "inactive", "T2": "inactive", "T3": "inactive"}
{"compound": "COCC(=O)N1C[C@H]2CNC[C@@]2(C(=O)N2CCC(Cn3cccn3)CC2)C1", "T1": "inactive", "T2": "inactive", "T3": "inactive"}
{"compound": "Nc1nc2c(s1)CN(C(=O)c1cn(CC3CCCNC3)nn1)CC2", "stereo": "stereo not drawn", "T1": "inactive", "T2": "inactive", "T3": "inactive"}
{"compound": "O=C(O)c1ccccc1-n1c2ccccc2c2ccccc21", "T1": "inactive", "T2": "inactive", "T3": "inactive"}
{"compound": "CCN1CCc2nc3sc(C(=O)c4ccc(Cl)cc4)c(N)c3cc2C1", "T1": "inactive", "T2": "inactive", "T3": "inactive"}
{"compound": "CCOc1ccc(C2c3c(-c4ccccc4O)n[nH]c3C(=O)N2CCO)cc1OCC", "stereo": "stereo not drawn", "T1": "inactive", "T2": "inactive"}
{"compound": "OC(Cn1cnc(-c2ccccc2)c1-c1ccc2nonc2c1)c1cccnc1", "stereo": "stereo not drawn", "T1": "inactive", "T2": "inactive", "T3": "inactive"}
{"compound": "CN(C)CCCNC1=CC(=O)CC(c2ccccc2)C1", "stereo": "stereo not drawn", "T1": "inactive", "T2": "inactive", "T3": "inactive"}
{"compound": "Cc1ccc(CNc2cnc3cc(S(=O)(=O)N4CCCCC4)ccc3n2)cc1", "T1": "inactive", "T2": "inactive", "T3": "inactive"}
{"compound": "COc1cccc(CN2CCN(c3nc(C(N)=O)cs3)CC2CCO)c1", "stereo": "stereo not drawn", "T1": "inactive", "T2": "inactive", "T3": "inactive"}
{"compound": "Cc1ccccc1CNc1nc2nc(C)c(Cl)c(C)n2n1", "T1": "inactive", "T2": "inactive"}
{"compound": "CCc1ccccc1-n1nnc(-c2nc(-c3ccc(OC)cc3)no2)c1N", "T1": "inactive", "T2": "inactive"}
{"compound": "O=C(O)C(CO)c1ccccc1", "stereo": "stereo not drawn", "T1": "inactive", "T2": "inactive", "T3": "inactive"}
{"compound": "Cc1ccccc1N1CCN(C(=O)c2cnc(N)nc2-c2ccccc2)C(C)C1", "stereo": "stereo not drawn", "T1": "inactive", "T2": "inactive", "T3": "inactive"}
{"compound": "CCN(CC)CCCNCC1CCOC(C)(C)C1", "stereo": "stereo not drawn", "T1": "inactive", "T2": "inactive"}
{"compound": "CNC(=O)c1cccc(CNCc2cnc(-c3ccccc3C)s2)c1", "T1": "inactive", "T2": "inactive", "T3": "inactive"}
{"compound": "CC(C)n1cnc2cc(NCc3ccco3)ccc21", "T1": "inactive", "T2": "inactive", "T3": "inactive"}
{"compound": "Cc1ccc(-c2nc3nc(C)cc(NC(C)C)n3n2)cc1", "T1": "inactive", "T2": "inactive"}
{"compound": "CSc1nnc(-c2cccnc2)n1CCCO", "T1": "inactive", "T2": "inactive"}
{"compound": "CN1N=C/C(=C/NC(N)=O)C1=O", "T1": "inactive", "T2": "inactive", "T3": "inactive"}
{"compound": "O=C(CCC(=O)N1CCCCCC1)NC[C@@H]1CCNC[C@H]1O", "T1": "inactive", "T2": "inactive", "T3": "inactive"}
{"compound": "CCOc1ccc(NC(=O)c2c(N)sc(-c3ccccc3)c2C)cc1", "T1": "inactive", "T2": "inactive", "T3": "inactive"}
{"compound": "CNC(=O)[C@@H]1C[C@@H](N)CN1Cc1c[nH]nc1-c1cc(C)ccc1C", "T1": "inactive", "T2": "inactive", "T3": "inactive"}
{"compound": "CC(C)Oc1ccc(C(=O)C2=C(O)C(=O)N(CCN3CCNCC3)C2c2cccs2)cc1", "stereo": "stereo not drawn", "T1": "inactive", "T2": "inactive", "T3": "inactive"}

For reference, 3 entries once more:

Compound	T1	T2	T3
Cl.OCCOc1ccc(CNCC2CCCO2)cc1 (stereo not drawn)	inactive	inactive	inactive
O=C(O)c1ccccc1-n1c2ccccc2c2ccccc21	inactive	inactive	inactive
Cc1cnc(N2CCC(C(=O)O)(n3cccn3)CC2)nc1N	inactive	inactive	inactive